Laboratory results reported in PubChem BioAssay AID1117319 (Southern Research Institute, 2015).
In all, about 260,000 compounds went through this assay and about 1,500 (0.58%) were called active. The inconclusive results got no clear call from the source; some entries with a clear call stand among them for comparison.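 Rule for the calls: active = inhibition above a set limit at one or more doses, reproduced on every date tested; inconclusive = results disagree between test dates, or hit never tested in dose response; inactive = the rest.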

Protein sequences, listed by entry. Tags and fused reporters are not part of them. Lines headed by an entry give the natural chain unless they say otherwise; changes in a name come on top.
UniProt P69720: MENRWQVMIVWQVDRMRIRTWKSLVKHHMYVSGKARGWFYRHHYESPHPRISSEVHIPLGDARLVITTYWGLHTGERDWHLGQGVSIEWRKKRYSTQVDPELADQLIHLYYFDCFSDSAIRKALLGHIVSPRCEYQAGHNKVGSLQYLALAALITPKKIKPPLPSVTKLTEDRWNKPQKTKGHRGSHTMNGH
UniProt P69721: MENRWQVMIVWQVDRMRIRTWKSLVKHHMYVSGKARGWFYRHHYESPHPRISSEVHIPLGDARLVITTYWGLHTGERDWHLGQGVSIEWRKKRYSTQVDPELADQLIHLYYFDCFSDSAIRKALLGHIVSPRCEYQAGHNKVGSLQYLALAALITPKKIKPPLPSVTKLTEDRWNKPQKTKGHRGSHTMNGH
UniProt P69722: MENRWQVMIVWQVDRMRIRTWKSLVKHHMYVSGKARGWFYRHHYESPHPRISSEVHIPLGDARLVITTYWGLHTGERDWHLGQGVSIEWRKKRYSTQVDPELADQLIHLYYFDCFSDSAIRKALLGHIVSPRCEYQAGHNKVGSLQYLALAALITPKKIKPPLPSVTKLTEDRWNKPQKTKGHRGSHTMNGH
UniProt P69723: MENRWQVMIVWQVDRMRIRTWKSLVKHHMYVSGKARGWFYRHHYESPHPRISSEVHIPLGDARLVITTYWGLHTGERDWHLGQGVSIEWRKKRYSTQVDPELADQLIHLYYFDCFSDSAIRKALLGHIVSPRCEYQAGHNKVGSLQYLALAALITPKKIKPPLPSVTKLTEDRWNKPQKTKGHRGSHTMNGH
UniProt Q9HC16: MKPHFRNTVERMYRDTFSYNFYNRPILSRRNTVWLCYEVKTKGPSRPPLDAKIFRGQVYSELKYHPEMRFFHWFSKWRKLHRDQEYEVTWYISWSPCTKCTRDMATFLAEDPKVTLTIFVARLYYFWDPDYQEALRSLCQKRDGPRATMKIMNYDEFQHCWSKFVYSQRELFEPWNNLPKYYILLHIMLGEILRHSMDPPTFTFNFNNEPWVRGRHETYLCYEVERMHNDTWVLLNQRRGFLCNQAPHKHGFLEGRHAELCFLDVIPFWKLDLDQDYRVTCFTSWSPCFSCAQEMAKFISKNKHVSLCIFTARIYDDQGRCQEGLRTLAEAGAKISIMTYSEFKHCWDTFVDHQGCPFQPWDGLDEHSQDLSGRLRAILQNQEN

Each compound was assayed against Virion infectivity factor (Human immunodeficiency virus type 1 group M subtype B (isolate BH10)) + Virion infectivity factor (Human immunodeficiency virus type 1 group M subtype B (isolate BRU/LAI)) + Virion infectivity factor (Human immunodeficiency virus type 1 group M subtype B (isolate PCV12)) + Virion infectivity factor (Human immunodeficiency virus type 1 group M subtype B (isolate HXB2)) + DNA dC->dU-editing enzyme APOBEC-3G (Homo sapiens) (UniProt P69720+P69721+P69722+P69723+Q9HC16) (assay: inhibitors of Vif binding to APOBEC3G peptide, primary screen, biochemical, TR-FRET, GST-Vif 1-94, biotin-A3G peptide, dose response retest (AID 1117319;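 note: Vif residues 1-94 fused to GST binding biotinylated APOBEC3G peptide 110-148; 0% = full assay without inhibitor and 100% = GST in place of GST-Vif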)). Conditions: hits give high values.
In the case of `CN(C)S(=O)(=O)c1ccc(C(=O)OCc2ccc(C#N)cc2)cc1`, the inhibition is reported as inconclusive: 58%. In the case of `O=C(CCc1ccc(S(=O)(=O)N2CCOCC2)cc1)N/N=C/c1ccc(O)c(O)c1O`, the inhibition is reported as inconclusive: 54%. With `COc1cc(-c2nnc(SCC(=O)c3ccc(C)cc3)o2)cc(OC)c1OC` the inhibition was inconclusive: 47.5%. With `Cc1c(C(=O)NC2CC2)oc2ccc(S(=O)(=O)N3CCCCCC3)cc12` the inhibition was inconclusive: 47.1%. For `O=C(Nc1ccccc1-c1nc2ccccc2s1)c1ccc(Br)o1`, the inhibition was inconclusive: 57.8%. For `Nc1nc(Cl)nc2c1ncn2[C@@H]1O[C@H](CO)[C@@H](O)[C@H]1O`, the inhibition was inconclusive: 41%. With `O=C(COC(=O)c1ccc2c(c1)C(=O)N(Cc1ccncc1)C2=O)Nc1ccccc1[N+](=O)[O-]` the inhibition was inconclusive: 63.1%. `CCCSc1nc(NCc2ccco2)c2c3c(sc2n1)COC(C)(CC)C3` (configuration not stated) was tested, and the inhibition was inconclusive: 35%. `O=C(Nc1cccc(F)c1)c1cc(S(=O)(=O)N2CCOCC2)cs1` was tested, and the inhibition was inconclusive: 39.5%. In the case of `O=c1c2c(nc3cc(-c4cccc(Cl)c4)[nH]n13)CCC2`, the inhibition is reported as inconclusive: 42.1%. In the case of `COC(=O)C1CC(c2ccccc2)N(c2ccccc2)O1` (configuration not stated), the inhibition is reported as inactive: -1.63%. For `CCOC(=O)Cc1csc(NC(=O)C2CCCN(S(=O)(=O)c3cnc[nH]3)C2)n1` (configuration not stated), the inhibition was inconclusive: 47.2%. For `COC(=O)C1=C(C(C)=O)C(c2ccc(C)cc2)n2nnnc2N1` (configuration not stated), the inhibition was inconclusive: 41.6%. `COc1cc(OC)c(-c2oc3ccccc3c(=O)c2O)c(OC)c1` was tested, and the inhibition was inactive: 4.4%. With `COc1ccc(/C=N/NC(=O)CN(C2=NS(=O)(=O)c3ccccc32)c2ccccc2)cc1` the inhibition was inactive: 22.5%. In the case of `Cc1ccc(S(=O)(=O)Cn2nnnc2C(C(C)C)N2CCc3ccccc3C2)cc1` (configuration not stated), the inhibition is reported as inconclusive: 27.6%. In the case of `Oc1nc(Nc2ccc(Cl)cc2Cl)sc1/C=C1\C=Nc2ccccc21`, the inhibition is reported as inconclusive: 37.8%. `CN(C)c1nnnn1-c1cccc(Oc2ncc(C(F)(F)F)cc2Cl)c1` was tested, and the inhibition was inconclusive: 35.7%. With `CC(CCc1ccccc1)NC(=O)C1CCN(S(=O)(=O)N2CCOCC2)CC1` (configuration not stated) the inhibition was inactive: -3.69%. For `COCCOC(=O)c1[nH]c2c(c1C)C(=O)CC(c1ccco1)C2` (configuration not stated), the inhibition was inconclusive: 61.3%. `O=C(c1ccccc1)N(Nc1ccccc1)c1ccccc1` was tested, and the inhibition was inactive: 11.5%. `COCCN(C(=O)c1cc2c(s1)CCC2)c1c(N)n(CC(C)C)c(=O)[nH]c1=O` was tested, and the inhibition was inconclusive: 47.4%. `CCOc1ccccc1NS(=O)(=O)c1ccc2[nH]c(=O)[nH]c2c1` was tested, and the inhibition was inconclusive: 36.2%. In the case of `Cc1cccc2cc(CNCc3ccccc3)c(Cl)nc12`, the inhibition is reported as inconclusive: 34%. With `O/N=C1\CCCc2nnc3c(c21)CCCC3` the inhibition was inconclusive: 53.6%. With `N#Cc1c(N)sc2c1CCCCCC2` the inhibition was inactive: 22.4%. For `CCN(CC)S(=O)(=O)c1ccc(N(C)Cc2cccnc2)nc1`, the inhibition was inconclusive: 55.4%. For `Nn1c(SCC(=O)NC(=O)NCc2ccco2)nnc1-c1ccc(OC(F)F)cc1`, the inhibition was inconclusive: 28.9%. `O=Nc1c(O)ccc2cc(S(=O)(=O)O)ccc12` was tested, and the inhibition was inactive: 24.3%. With `COc1ccccc1N(C)S(=O)(=O)c1ccc(C(=O)Nc2ccc3nc(C)sc3c2)cc1` the inhibition was inconclusive: 40.5%. In the case of `Cc1cc2cc(CNC(=O)c3cccc([N+](=O)[O-])c3)ccc2[nH]1`, the inhibition is reported as inconclusive: 41%. In the case of `CC12CCC(=O)N1C(C(=O)OCC(=O)Nc1cccc(S(=O)(=O)N3CCCCCC3)c1)CS2` (configuration not stated), the inhibition is reported as inconclusive: 34.6%. `CCSc1nnc(Nc2ccc(C)cc2)s1` was tested, and the inhibition was inactive: 1.17%. In the case of `Cc1c(N=C2NC(=O)/C(=C/c3cccc([N+](=O)[O-])c3)S2)c(=O)n(-c2ccccc2)n1C`, the inhibition is reported as inconclusive: 40.6%. In the case of `COc1ccc(-c2cc(-c3ccco3)[nH]c(=O)c2C#N)cc1OC`, the inhibition is reported as inconclusive: 55.8%. `COc1cc(OC)cc(C(=O)NCCNC(=O)c2ccccc2)c1` was tested, and the inhibition was inconclusive: 46.3%. In the case of `CC1CC2(CCCCC2)Nc2c1ccc1ccccc21` (configuration not stated), the inhibition is reported as inconclusive: 37.4%. For `Cc1ccc(Cl)cc1N1CCN(C(=O)CCC(=O)O)CC1`, the inhibition was inconclusive: 34.4%. With `CC(C)CC(=O)N1CCN(Cc2cccc([N+](=O)[O-])c2)CC1` the inhibition was inconclusive: 42.5%. In the case of `COc1cccc(NS(=O)(=O)c2cc(C)ccc2OC)c1`, the inhibition is reported as inconclusive: 48.2%. For `N/C(=N\OS(=O)(=O)c1ccccc1)c1ccccn1`, the inhibition was inconclusive: 36.9%. In the case of `COC(=O)c1c(C(=O)OC)c(C)n(Cc2ccco2)c1C`, the inhibition is reported as inactive: 1.05%. With `Cc1cc(C)c(C#N)c(SCc2[nH]nc3c2C(c2ccccc2)C(C#N)=C(N)O3)n1` (configuration not stated) the inhibition was inconclusive: 38.2%. In the case of `CCOc1ccc(OCCOCCN2CCc3ccccc3C2)cc1`, the inhibition is reported as inconclusive: 47.7%. In the case of `COc1ccc(CN(C(=O)c2oc3ccccc3c2C)C2CCS(=O)(=O)C2)cc1` (configuration not stated), the inhibition is reported as inconclusive: 33.5%. `CC(C)C12CN3CC(C(C)C)(CN(C1)C3c1ccc([N+](=O)[O-])o1)C2=O` (configuration not stated) was tested, and the inhibition was inconclusive: 46.3%. With `CCC(=O)OC1(C)C(=O)C=C2C=C(c3ccsc3)OC=C2C1=O` (configuration not stated) the inhibition was inconclusive: 64%. `O=C(CSCCO)Nc1ccc(C2CCCCC2)cc1` was tested, and the inhibition was inconclusive: 39.6%. In the case of `COc1ccc(O)c(C(=O)c2cnn(S(=O)(=O)c3ccc(C)cc3)c2)c1`, the inhibition is reported as inactive: 4.82%. For `Clc1cccc2sc(N3CCCCC3)nc12`, the inhibition was inactive: 0.64%. For `O=C(NC(=S)NC(c1ccccc1)c1ccncc1)c1ccccc1` (configuration not stated), the inhibition was inconclusive: 37.5%. In the case of `Cc1ccc(C)c(NC(=O)C(Sc2nnc(-c3cccs3)o2)c2ccccc2)c1` (configuration not stated), the inhibition is reported as inconclusive: 37.7%. With `Cc1ccccc1NC(=O)CSc1nnc(-c2ccco2)n1N` the inhibition was inactive: -10.3%. `CCN(CC)CCOC(=O)C1(c2ccccc2)CCOCC1` was tested, and the inhibition was inconclusive: 42.2%. `CC(c1ccccc1)n1c(SCC(=O)Nc2ccccc2)n[nH]c1=O` (configuration not stated) was tested, and the inhibition was inactive: -10.8%. With `O=C(Nc1ccccc1N1CCOCC1)c1ccc(Br)o1` the inhibition was inactive: 7.09%. For `O=C(Nc1nn(Cc2ccc(Cl)cc2)cc1Br)c1ccc(COc2ccccc2Cl)o1`, the inhibition was inconclusive: 33.8%.
